Data reported in US20060269536A1.
These are yes or no findings as the source states them, for the method shown. Some binding calls cover weakened binding; strength is not graded here.

The chains behind the UniProt entries cited, without tags or fusion partners. Residues count along the entry.
UniProt P20151, residues 25-261: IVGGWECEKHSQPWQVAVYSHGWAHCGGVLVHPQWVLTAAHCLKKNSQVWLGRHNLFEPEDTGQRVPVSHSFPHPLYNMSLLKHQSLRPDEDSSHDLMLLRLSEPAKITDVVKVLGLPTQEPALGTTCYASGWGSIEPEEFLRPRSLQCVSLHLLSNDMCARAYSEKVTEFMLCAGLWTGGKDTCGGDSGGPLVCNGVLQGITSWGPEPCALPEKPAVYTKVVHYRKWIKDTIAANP

Tests used:
[1] = target: human glandular kallikrein hK2 (human) (UniProt P20151); assay: inhibition of hK2 over time (data not shown)
[2] = target: human glandular kallikrein hK2 (human) (UniProt P20151); assay: Western blot, anti-hK2 antibody, 3 h at 37° C., I:E 100:1 (FIG. 3A)
[3] = target: human glandular kallikrein hK2 (human) (UniProt P20151); assay: Western blot, anti-hK2 antibody 9D5, 1 µg inhibitor with 100 ng hK2, 1 hour at 37° C. (FIG. 6A)
[4] = target: human glandular kallikrein hK2 (human) (UniProt P20151); assay: covalent complex formation with hK2

binding [1]: binds
binding [2]: binds
binding [3]: binds
binding [4]: binds
B1: rACT6.1 (designed binder)
chain: MRGSHHHHHHSRHPNSPLDEENLTQENQDRGTHVDLGLASANVDFAFSLYKQLVLKAPDKNVIFSPLSISTALAFLSLGAHNTTLTEILKGLKFNLTETSEAEIHQSFQHLLRTLNQSSDELQLSMGNAMFVKEQLSLLDRFTEDAKRLYGSEAFATDFQDSAAAKKLINDYVKNGTRGKITDLIKDLDSQTMMVLVNYIFFKAKWEMPFDPQDTHQSRFYLSKKKWVMVPMMSLHHLTIPYFRDEELSCTVVELKYTGNASALFILPDQDKMEEVEAMLLPETLKRWRDSLEFREIGELYLPKFSISRDYNLNDILLQLGIEEAFTSKADLSGITGARNLAVSQVVHKAVLDVFEEGTEASAATAVKIMTRSNAVETRTIVRFNRPFLMIIVPTDTQNIFFMSKVTNPKQA
